In patent publication US20120321641A1 (TORAY INDUSTRIES, published 2012):
These are yes or no findings as the source states them, for the method shown. Some results given as binding are weak or reduced against the parent protein; the word gives no strength.

Molecular target: dog CAPRIN-1 in dog breast cancer tissue (dog)
Assay: immunohistochemical staining of frozen dog breast cancer sections

B1: monoclonal antibody #1 prepared in Example 4 (antibody, V domains shown)
VH: AVTLDESGGGLQTPGGGLSLVCKASGFTFSSFDMGWVRQAPGKGLEFVAQINDAGSRTWYATAVKGRATISRDNGQTTVRLQLNNLRAEDTGTYYCTRGSGYVGAGAIDAWGHGTEVIVS
VL: AALTQPSSVSANPGETVKITCSGGSGYYGWYQQQKSPGSAPVTVIYQNDKRPSDIPSRFSGSGSGSTNTLTITGVQAEDEAVYFCGRYDSTDSGIFGAGTTLTVL
notes: also called anti-CAPRIN-1 monoclonal antibody
  binding: binds
